The values below are quoted from earlier work in US20020151876A1, “Devices and methods for management of bone density” (priority 2001, published 2002).

The series has as its system patients with Crohn's disease. The conditions noted are these: cited from earlier work.

Consider `NCCCC(O)(P(=O)(O)O)P(=O)(O)O` [alendronate], for which the “BMD (bone mineral density)” value is listed as “significantly increased BMD”.
